For this test, the target named is HA-TTC3 (UniProt P53804). Description: co-IP; LX-2 cells co-transfected with Flag-KIF18A and HA-TTC3 plasmids; IP with anti-Flag or with anti-HA antibody, Western blot.

Protein sequences, listed by entry. Tags and fused reporters are not part of them.
UniProt P53804: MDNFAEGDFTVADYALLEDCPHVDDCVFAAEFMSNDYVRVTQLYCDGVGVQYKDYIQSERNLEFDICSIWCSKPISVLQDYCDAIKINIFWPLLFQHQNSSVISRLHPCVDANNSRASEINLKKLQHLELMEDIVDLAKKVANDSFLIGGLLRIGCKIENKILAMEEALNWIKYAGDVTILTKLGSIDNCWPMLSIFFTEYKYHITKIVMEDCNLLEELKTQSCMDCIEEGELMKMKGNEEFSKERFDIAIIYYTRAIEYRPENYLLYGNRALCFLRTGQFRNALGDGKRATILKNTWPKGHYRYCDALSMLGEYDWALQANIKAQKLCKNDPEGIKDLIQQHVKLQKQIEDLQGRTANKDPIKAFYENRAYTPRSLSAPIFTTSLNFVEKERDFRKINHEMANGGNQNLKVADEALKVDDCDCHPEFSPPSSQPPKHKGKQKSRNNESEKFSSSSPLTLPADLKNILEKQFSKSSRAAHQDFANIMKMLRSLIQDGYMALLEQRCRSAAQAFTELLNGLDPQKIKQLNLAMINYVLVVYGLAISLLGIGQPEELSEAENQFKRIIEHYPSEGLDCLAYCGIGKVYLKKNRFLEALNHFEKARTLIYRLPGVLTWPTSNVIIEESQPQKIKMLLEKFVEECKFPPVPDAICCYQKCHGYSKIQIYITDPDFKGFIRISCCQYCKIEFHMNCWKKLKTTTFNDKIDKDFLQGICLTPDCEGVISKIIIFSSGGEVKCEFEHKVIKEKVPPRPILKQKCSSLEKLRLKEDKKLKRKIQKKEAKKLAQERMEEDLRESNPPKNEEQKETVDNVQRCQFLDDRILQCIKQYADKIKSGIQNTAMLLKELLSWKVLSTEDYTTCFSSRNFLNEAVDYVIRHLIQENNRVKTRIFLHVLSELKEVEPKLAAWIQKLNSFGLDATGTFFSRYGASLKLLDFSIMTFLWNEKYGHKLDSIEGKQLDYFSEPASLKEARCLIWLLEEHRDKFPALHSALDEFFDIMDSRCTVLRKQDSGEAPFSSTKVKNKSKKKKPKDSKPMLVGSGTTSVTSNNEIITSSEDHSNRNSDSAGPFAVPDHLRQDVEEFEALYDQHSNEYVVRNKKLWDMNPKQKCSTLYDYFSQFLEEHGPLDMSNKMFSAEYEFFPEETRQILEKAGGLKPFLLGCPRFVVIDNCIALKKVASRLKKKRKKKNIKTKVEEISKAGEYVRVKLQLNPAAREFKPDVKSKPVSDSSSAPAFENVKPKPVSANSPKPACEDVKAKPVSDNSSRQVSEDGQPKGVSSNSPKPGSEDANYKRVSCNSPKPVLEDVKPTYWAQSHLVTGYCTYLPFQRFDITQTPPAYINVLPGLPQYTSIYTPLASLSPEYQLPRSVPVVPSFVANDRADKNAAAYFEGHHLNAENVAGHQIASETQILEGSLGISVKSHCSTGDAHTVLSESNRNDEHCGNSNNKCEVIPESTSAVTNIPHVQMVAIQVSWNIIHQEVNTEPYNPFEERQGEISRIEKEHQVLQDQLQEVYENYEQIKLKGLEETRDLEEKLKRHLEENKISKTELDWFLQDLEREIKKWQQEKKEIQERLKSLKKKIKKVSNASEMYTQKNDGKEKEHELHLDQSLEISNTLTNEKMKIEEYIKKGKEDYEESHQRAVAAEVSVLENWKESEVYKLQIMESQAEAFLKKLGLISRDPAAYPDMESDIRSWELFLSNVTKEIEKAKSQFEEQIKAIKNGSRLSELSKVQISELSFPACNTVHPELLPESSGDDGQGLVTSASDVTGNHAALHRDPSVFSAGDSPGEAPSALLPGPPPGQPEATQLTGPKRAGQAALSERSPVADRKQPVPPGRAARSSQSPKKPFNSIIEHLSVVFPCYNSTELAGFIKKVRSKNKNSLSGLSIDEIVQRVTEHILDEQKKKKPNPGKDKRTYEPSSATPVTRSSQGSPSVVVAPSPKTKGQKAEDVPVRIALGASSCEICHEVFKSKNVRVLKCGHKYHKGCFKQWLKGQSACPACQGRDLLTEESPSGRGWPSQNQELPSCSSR

Results are given in words; binding and its absence hold for the method and conditions named. In cells and extracts the contact can be indirect. Some entries that bind do so weakly or less than the wild type. Sequences can lack the tags named with a protein.

B1: Flag-KIF18A (protein, UniProt Q8NI77 1-898)
chain: MSVTEEDLCHHMKVVVRVRPENTKEKAAGFHKVVHVVDKHILVFDPKQEEVSFFHGKKTTNQNVIKKQNKDLKFVFDAVFDETSTQSEVFEHTTKPILRSFLNGYNCTVLAYGATGAGKTHTMLGSADEPGVMYLTMLHLYKCMDEIKEEKICSTAVSYLEVYNEQIRDLLVNSGPLAVREDTQKGVVVHGLTLHQPKSSEEILHLLDNGNKNRTQHPTDMNATSSRSHAVFQIYLRQQDKTASINQNVRIAKMSLIDLAGSERASTSGAKGTRFVEGTNINRSLLALGNVINALADSKRKNQHIPYRNSKLTRLLKDSLGGNCQTIMIAAVSPSSVFYDDTYNTLKYANRAKDIKSSLKSNVLNVNNHITQYVKICNEQKAEILLLKEKLKAYEEQKAFTNENDQAKLMISNPQEKEIERFQEILNCLFQNREEIRQEYLKLEMLLKENELKSFYQQQCHKQIEMMCSEDKVEKATGKRDHRLAMLKTRRSYLEKRREEELKQFDENTNWLHRVEKEMGLLSQNGHIPKELKKDLHCHHLHLQNKDLKAQIRHMMDLACLQEQQHRQTEAVLNALLPTLRKQYCTLKEAGLSNAAFESDFKEIEHLVERKKVVVWADQTAEQPKQNDLPGISVLMTFPQLGPVQPIPCCSSSGGTNLVKIPTEKRTRRKLMPSPLKGQHTLKSPPSQSVQLNDSLSKELQPIVYTPEDCRKAFQNPSTVTLMKPSSFTTSFQAISSNINSDNCLKMLCEVAIPHNRRKECGQEDLDSTFTICEDIKSSKCKLPEQESLPNDNKDILQRLDPSSFSTKHSMPVPSMVPSYMAMTTAAKRKRKLTSSTSNSSLTADVNSGFAKRVRQDNSSEKHLQENKPTMEHKRNICKINPSMVRKFGRNISKGNLR
On to B1, for which the binding entry is on record as “binds”.
